{"sequences": {"note": "Chains of the proteins cited; added tags and fusions are not shown. Lines headed by an entry give the natural chain unless they say otherwise; changes in a name come on top.", "UniProt Q12851": "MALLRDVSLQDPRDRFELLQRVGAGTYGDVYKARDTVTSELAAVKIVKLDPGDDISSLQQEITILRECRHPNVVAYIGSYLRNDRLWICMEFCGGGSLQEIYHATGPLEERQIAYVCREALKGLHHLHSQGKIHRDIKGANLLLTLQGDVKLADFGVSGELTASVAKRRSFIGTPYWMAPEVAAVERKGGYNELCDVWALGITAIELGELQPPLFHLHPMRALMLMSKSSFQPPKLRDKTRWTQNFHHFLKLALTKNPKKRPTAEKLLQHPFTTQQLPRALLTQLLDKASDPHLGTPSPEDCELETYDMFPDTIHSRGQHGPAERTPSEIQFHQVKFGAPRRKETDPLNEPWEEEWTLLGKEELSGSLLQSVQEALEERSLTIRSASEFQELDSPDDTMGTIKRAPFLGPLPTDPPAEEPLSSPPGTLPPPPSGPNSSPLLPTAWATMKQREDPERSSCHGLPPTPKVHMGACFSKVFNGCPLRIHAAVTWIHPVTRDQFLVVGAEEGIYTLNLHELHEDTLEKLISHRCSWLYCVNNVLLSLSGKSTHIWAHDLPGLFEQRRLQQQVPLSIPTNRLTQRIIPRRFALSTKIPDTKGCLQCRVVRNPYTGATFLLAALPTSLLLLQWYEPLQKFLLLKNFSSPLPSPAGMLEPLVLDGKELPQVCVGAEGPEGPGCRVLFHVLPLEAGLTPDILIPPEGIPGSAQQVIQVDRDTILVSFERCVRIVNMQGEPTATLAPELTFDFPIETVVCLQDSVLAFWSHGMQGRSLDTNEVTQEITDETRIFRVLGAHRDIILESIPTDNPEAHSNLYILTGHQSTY"}, "source": "the supplement of paper PMC12823440", "about": "“Inhibitors supercharge kinase turnover through native proteolytic circuits” (Nature, 2025)", "note": "The list shows a part of the results. Hit calls seldom repeat between salt and free forms of one compound.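 Kinases were expressed as nanoluciferase fusions in K562 cells and luminescence was read every 4 h between 2 and 18 h as percent of control, DMSO set to 100% and a positive control to 0%. A time point counts as decreased when the signal drops significantly (2 sigma). The hit call is the authors' own, does not follow from the count of time points alone, and its rule is not shown.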", "data": [{"target": "MAP2K2 (UniProt P36507)", "assay": "number of time points (of 5) at which kinase-Nluc abundance scored as decreased, DMSO-normalised (count); higher = more persistent destabilization", "details": "K562; 2-18 h", "values": [{"smiles": "C=CC(=O)N1CCC(c2ccc(C(N)=O)c(-c3ccc(Oc4ccccc4)cc3)n2)CC1", "note": "[Orelabrutinib] (2.5 µM)", "number of time points": 0}, {"smiles": "CN1C(=O)N[C@@H](Cc2c[nH]c3c(Cl)cccc23)C1=O", "note": "[Necrostatin 2 (S enantiomer)] (10 µM)", "number of time points": 0}, {"smiles": "N#Cc1cc(-c2ccnc(Nc3ccc(N4CCOCC4)cc3)n2)ccc1OC1CCOCC1", "note": "(10 µM)", "number of time points": 0}, {"smiles": "COc1cccc(-c2cc(=O)c3ccccc3o2)c1N", "note": "(10 µM)", "number of time points": 0}, {"smiles": "Nc1ccc(Sc2nc3ccccc3s2)c(Cl)c1", "note": "[KRAS inhibitor-9] (10 µM)", "number of time points": 0}]}, {"target": "MAP4K2 (UniProt Q12851)", "assay": "number of time points (of 5) at which kinase-Nluc abundance scored as decreased, DMSO-normalised (count); higher = more persistent destabilization", "details": "K562; 2-18 h", "values": [{"smiles": "Cc1cnc(Cl)nc1-c1ccc(N(Cc2ccc(CNC(=O)C(F)F)cc2)C(=O)c2ccc(O)cc2O)cc1", "note": "(10 µM)", "number of time points": 0}, {"smiles": "COc1cc2c(cc1OC)[C@@H]1C(=O)c3ccc4c(c3O[C@@H]1CO2)C=CC(C)(C)O4", "note": "[Deguelin] (10 µM)", "number of time points": 0}, {"smiles": "CC(C)(CCCCCC(O)CCCCCC(C)(C)C(=O)O)C(=O)O", "note": "[Bempedoic acid] (10 µM)", "number of time points": 0}, {"smiles": "COc1cc2nnc(C(N)=O)c(Nc3ccc(C)cc3F)c2cc1N1CCN(CCO)CC1", "note": "(2.5 µM)", "number of time points": 0}, {"smiles": "O=C(Nc1ccc(Cl)cc1)C1CN(C(=O)c2cccc(-c3ccco3)c2)CC(F)(F)C1", "note": "(configuration not stated) (2.5 µM)", "number of time points": 0}, {"smiles": "CC(=O)O[C@@H]1[C@@H](OC(C)=O)[C@@H](O)[C@H](Oc2c(-c3ccc(O)cc3)oc3cc(O)cc(O)c3c2=O)O[C@H]1C", "note": "(10 µM)", "number of time points": 0}, {"smiles": "COc1cc2nc(-c3cc(F)ccc3O)nc(N[C@@H]3CNC[C@H]3C(C)(C)O)c2cc1OC", "note": "(2.5 µM)", "number of time points": 0}]}]}
